Data: patent publication US20240209099A1
No constants are given. Whether binding was seen depends on the method and setting. Some binding calls cover weakened binding; strength is not graded here. Tags and fused reporters may be left off the sequences shown.

Sequences of proteins named here, by UniProt entry; tags and fusion partners are left off. A change or cut given only in a name is not applied to a line headed by its entry.
UniProt P35918: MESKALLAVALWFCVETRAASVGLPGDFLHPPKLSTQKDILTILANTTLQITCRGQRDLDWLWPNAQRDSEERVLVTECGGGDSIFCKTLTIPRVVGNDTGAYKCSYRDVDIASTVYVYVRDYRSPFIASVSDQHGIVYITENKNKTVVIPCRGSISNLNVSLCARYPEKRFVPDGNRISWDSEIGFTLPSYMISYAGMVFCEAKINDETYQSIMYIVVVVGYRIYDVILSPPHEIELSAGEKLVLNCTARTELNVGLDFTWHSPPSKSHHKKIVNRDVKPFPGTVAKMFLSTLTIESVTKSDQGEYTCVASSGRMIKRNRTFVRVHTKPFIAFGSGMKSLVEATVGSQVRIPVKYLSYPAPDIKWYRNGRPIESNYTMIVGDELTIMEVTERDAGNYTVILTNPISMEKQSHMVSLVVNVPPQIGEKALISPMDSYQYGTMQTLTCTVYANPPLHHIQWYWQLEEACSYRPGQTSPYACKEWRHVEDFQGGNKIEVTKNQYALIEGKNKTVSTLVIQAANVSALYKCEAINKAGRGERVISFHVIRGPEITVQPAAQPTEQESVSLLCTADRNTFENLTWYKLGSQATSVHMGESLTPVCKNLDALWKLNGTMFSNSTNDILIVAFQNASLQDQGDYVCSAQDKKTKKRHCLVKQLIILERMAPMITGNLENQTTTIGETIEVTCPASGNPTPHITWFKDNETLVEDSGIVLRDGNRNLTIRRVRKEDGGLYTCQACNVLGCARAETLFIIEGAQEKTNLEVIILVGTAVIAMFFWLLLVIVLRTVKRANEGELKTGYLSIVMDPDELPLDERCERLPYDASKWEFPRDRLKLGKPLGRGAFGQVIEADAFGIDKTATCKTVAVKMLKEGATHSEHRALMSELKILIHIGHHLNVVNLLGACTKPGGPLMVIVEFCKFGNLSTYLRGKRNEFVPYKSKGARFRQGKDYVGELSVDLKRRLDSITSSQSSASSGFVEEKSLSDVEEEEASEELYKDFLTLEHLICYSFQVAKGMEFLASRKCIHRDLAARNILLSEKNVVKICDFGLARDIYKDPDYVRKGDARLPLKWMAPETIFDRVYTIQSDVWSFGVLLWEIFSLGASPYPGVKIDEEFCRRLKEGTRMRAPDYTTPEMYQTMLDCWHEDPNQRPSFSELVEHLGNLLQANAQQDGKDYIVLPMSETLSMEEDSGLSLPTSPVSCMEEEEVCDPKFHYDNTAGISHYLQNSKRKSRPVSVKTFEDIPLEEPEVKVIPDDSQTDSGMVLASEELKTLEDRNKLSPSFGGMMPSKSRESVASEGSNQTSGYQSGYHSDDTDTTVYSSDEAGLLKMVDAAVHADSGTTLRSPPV

Molecular target: mouse VEGFR2 (mouse) (UniProt P35918)
Test: ELISA, mouse VEGFR2 coated

binding: binds
B1: chimeric-DC101 (anti-mouse VEGFR2 antibody DC101 with human IgG1 Fc) (antibody, V domains shown)
VH: EVQLVETGGGLVQPGNSLKLSCATSGFIFSTTWMNWIRQTPGKRLEWLAQIEDKSNNYFISYSESVKGRFTISRDDSKSSVYLQMNNLKEEDTAIYYCSWKYRSNYYFDYWGQGVMVTVSS
VL: DIVLTQSPALAVSLEQRATISCKTSQNVDYYGISYLHWYQQKPGQQPKLLIYEGSNLASGIPARFSGSGSGTDFTLTIDPVEADDIVTYYCQQSKDYPYTFGAGTKLELKR
